The values that follow come from paper PMC8973694.

The chains behind the UniProt entries cited, without tags or fusion partners. Residues count along the entry.
UniProt O60603: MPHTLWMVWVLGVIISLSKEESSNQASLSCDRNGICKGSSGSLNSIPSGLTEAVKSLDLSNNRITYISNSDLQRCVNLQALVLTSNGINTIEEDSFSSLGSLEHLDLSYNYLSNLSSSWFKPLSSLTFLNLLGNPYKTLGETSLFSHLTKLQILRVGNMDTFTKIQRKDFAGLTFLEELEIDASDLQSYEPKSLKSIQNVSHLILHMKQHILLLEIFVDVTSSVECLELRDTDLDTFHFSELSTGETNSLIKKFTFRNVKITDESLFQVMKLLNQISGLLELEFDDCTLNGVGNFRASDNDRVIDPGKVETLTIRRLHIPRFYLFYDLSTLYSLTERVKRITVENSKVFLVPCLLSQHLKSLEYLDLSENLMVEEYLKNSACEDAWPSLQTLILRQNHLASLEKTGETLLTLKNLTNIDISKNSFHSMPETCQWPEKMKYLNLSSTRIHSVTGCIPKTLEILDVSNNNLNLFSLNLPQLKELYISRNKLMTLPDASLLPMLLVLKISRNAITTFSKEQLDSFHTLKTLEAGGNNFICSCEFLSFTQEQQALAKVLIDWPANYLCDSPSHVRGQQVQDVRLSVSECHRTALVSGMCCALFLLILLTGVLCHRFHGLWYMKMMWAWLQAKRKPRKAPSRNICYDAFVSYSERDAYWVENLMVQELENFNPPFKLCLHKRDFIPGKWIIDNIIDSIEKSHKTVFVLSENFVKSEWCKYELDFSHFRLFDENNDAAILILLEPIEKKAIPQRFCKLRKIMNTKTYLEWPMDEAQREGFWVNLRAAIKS
UniProt O00206, residues 24-839: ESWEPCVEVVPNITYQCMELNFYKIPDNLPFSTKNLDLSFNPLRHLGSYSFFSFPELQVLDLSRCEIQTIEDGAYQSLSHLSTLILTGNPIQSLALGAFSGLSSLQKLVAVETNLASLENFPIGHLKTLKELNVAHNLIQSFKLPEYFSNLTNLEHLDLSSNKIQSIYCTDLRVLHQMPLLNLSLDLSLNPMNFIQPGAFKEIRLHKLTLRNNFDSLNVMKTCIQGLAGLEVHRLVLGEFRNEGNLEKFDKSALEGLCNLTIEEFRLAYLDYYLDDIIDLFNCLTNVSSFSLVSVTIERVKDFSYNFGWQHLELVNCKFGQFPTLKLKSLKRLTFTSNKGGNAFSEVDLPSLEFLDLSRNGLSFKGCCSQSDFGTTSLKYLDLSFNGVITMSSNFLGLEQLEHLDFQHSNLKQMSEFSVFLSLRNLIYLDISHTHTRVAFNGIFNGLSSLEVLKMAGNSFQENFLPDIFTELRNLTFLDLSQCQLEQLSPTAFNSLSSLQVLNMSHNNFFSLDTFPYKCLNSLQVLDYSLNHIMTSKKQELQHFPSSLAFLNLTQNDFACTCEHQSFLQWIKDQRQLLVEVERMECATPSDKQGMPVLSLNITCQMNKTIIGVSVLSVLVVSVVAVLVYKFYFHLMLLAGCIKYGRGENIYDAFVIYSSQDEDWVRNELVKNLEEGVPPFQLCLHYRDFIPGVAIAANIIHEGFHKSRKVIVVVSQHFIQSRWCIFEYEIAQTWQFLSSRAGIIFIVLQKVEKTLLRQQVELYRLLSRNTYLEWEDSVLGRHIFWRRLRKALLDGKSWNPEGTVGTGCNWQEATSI
UniProt Q9NP99, residues 21-234: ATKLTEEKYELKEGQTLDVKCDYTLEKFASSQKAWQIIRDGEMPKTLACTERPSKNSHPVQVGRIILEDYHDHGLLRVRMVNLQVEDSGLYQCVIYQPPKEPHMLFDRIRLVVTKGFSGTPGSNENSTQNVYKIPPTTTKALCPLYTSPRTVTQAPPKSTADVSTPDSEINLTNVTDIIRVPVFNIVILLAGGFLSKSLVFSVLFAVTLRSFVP

Results are given in words; binding and its absence hold for the method and conditions named. In cells and extracts the contact can be indirect. Some results given as binding are weak or reduced against the parent protein; the word gives no strength.

Experiment [1] has as its target Toll-like receptor 2 (human (endogenous in HEnEpCs)) (UniProt O60603). Put plainly: co-IP; HEnEpC lysate (section heading: LPS-challenged HEnEpCs); cold lysis buffer for IP; anti-TREM1, anti-TLR2, anti-TLR4 or control IgG (1 µg) plus Protein A/G beads; beads washed three times with PBS; Western blot. A general note: Immunoblotting shows a protein as a band on a membrane.

Experiment [2] concerns the target Toll-like receptor 4 (human (endogenous in HEnEpCs)) (UniProt O00206). The experiment is described as above.

Take “Triggering receptor expressed on myeloid cells 1 (from UniProt Q9NP99 21-234)”: the binding result in experiment [1] and in experiment [2] was “binds” throughout.
